Measurements published in PubChem BioAssay AID493014 (National Center for Advancing Translational Sciences (NCATS), 2011).
Hit rate of the full screen: of about 340,000 compounds, about 170 (0.05%) were called active. Inconclusive means that the source gave no clear call. Such entries were picked first, then a sample of the others. Calls follow the shape of the dose curve; as a rule, active = well fitted inhibition curve with a large enough effect in the signal ratio, with a control signal flat (not every such curve was filed as active); inconclusive = small, poorly fitted or top-dose-only effect, or effect the other way, or a change in a side signal; inactive = flat fitted curve, though single readings scatter; the % refers to the signal ratio. Where the call is inconclusive, the potency comes from a doubtful curve fit.

experiment: qHTS Assay to Find Inhibitors of Chronic Active B-Cell Receptor Signaling; conditions: ABC-DLBCL IkBa-CBG/CBR reporter, luminescence ratio (green luciferase fused to IkBa over red control in TMD8 lymphoma cells), 4 h; activity change, negative = inhibition: at 46.1 µM (top of the series) unless noted;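 as to activity change, negative = inhibition: plate controls were basal doxycycline-induced cells for no effect and cells given 10 µM MG132 for full effect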
How it was run: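 TMD8 ABC-DLBCL cells carrying doxycycline-inducible green luciferase fused to IkappaBalpha plus unfused red luciferase were exposed to compounds (up to 46 uM) for 4 hrs at 37C. Activity came from the overlap-corrected green/red luminescence ratio.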
Potency is read from the fitted curve at half-maximal effect.

Row | Compound | activity change, negative = inhibition | Potency
1 | Cc1ccc(-c2ccc(C#N)c(=O)n2CC(=O)N(C)C)cc1 | inconclusive: 2.85% | –
2 | COc1ccc(OC)c(C2C(C(N)=O)=C(C)Nc3nc(-c4cccc(Cl)c4)nn32)c1 (stereo not given) | – | inconclusive: 35.5 µM [falling, partial curve, poor fit]
3 | Cc1cc(C)cc(N(C(=O)c2snc(C(N)=O)c2N)C(C(=O)NCC2CCCO2)c2cccs2)c1 (stereo not given) | inactive: -10.9% | –
4 | CC(NC(=O)Nc1ccc(Cl)cc1)C1CCCO1 (stereo not given) | inconclusive: 19% | –
5 | Cc1ccccc1-n1c(Cc2cccs2)n[nH]c1=S | inactive: -6.64% | –
6 | COc1ccc(/C=C/c2nc3ccccc3n2Cc2ccc(OC)c(OC)c2)cc1 | inconclusive: -7.81% | –
7 | Cc1ccccc1N=C1NC(=O)/C(=C/c2cccn2C)S1 | inconclusive: 463% | –
8 | CCN(CC)C(=O)[C@H]1CC(CC(=O)NCC23CC4CC(CC(C4)C2)C3)C(=O)N2CCc3c([nH]c4ccc(OC)cc34)[C@]12C (stereo not given in full) | inconclusive: -14.6% | –
9 | COCCN=c1scc(-c2cccs2)n1/N=C/c1ccc(O)c(O)c1O | inactive: 16.2% | –
10 | CN1/C(=C\C=C2/SC(=S)N(CC(=O)O)C2=O)C(C)(C)c2ccccc21 | inactive: 19.6% | –
11 | COC(=O)CSc1nnc(NC(=O)CCc2ccccc2)s1 | – | inconclusive: 14.1 µM [falling, partial curve, poor fit]
12 | COc1ccc(NC(=O)N2CCN(S(C)(=O)=O)CC2)c(OC)c1 | inactive: 1.47% | –
13 | Oc1ccc(N=Cc2c(O)ccc3ccccc23)cc1 | inconclusive: 7.68% | –
14 | Cc1ccc(CSc2nc3c(c(N(C)C)n2)CCCC3)cc1 | inactive: 1.19% | –
15 | COc1ccc(C(C(=O)NCCC(C)C)N(CCO)C(=O)c2snc(C(N)=O)c2N)cc1OC (stereo not given) | inconclusive: -2.71% | –
16 | COC(=O)C(Cc1ccc(O)cc1)NC(=O)C(C)NC(=O)c1ccc(C(C)(C)C)cc1 (stereo not given) | inactive: 0.244% | –
17 | NC(=O)c1sc2nnc(-c3ccccc3)c(-c3ccccc3)c2c1N | inconclusive: -0.261% | –
18 | O=C(/C=C/c1ccccc1[N+](=O)[O-])OCC(=O)c1ccccc1 | inconclusive: -23.1% | –
19 | COc1cccc(-c2cc(C(=O)NCc3ccccc3)[nH]n2)c1 | inconclusive: -20.5% | –
20 | CCOc1ccc2oc(C(=O)Nc3ccc4c(c3)OCO4)c(C)c2c1 | – | inconclusive: 22.4 µM [falling, single point]
21 | N#Cc1cccnc1Oc1ccccc1 | inconclusive: 2.68% | –
22 | N/C(Cn1cncn1)=N\NC(=O)C(=O)Nc1ccccc1 | inconclusive: -13.7% | –
23 | O=C(c1ccc2c(Cl)c3c(nc2c1)CCCC3)N1CCC(N2CCCCC2)CC1 | – | inconclusive: 29.1 µM [falling, single point]
24 | COc1ccccc1CN1C[C@@H]2C[C@@H](c3cccc(C)n3)N3CCC[C@@]23C1=O | inconclusive: 0.331% | –
25 | CCC(CO)Oc1cc(NC(=O)c2ccccc2N)c2ncn(C(C)C)c2c1 (stereo not given) | inconclusive: -0.658% | –
26 | Nc1c(C(=O)NC2CCCCC2)nsc1C(=O)OCC(=O)NC1CCCCC1 | – | inconclusive: 0.562 µM [falling, full curve, poor fit]
27 | O=C(CCc1nc(-c2ccc(Cl)cc2)no1)NCc1ccccc1CN1CCOCC1 | inactive: 2.89% | –

Row | Compound | activity change, negative = inhibition | Potency
28 | COc1ccc(-c2nc(C#N)c(NCCCn3ccnc3)o2)cc1OC | – | inconclusive: 23.1 µM [falling, partial curve, poor fit]
29 | COc1ccc(N2CCC(CNC(=O)Nc3ccc(Cl)cc3)C2)cc1 (stereo not given) | inconclusive: 16.3% | –
30 | Cc1ccc(/C=N\NC(=O)c2ccc(Cn3cc(Br)c([N+](=O)[O-])n3)o2)o1 | – | inconclusive: 20 µM [falling, partial curve, poor fit]
31 | CC(C)(C)OC(=O)CNC(=O)c1nc[nH]c1C(=O)N1CCN(C(=O)OC(C)(C)C)CC1 | inconclusive: -21.4% | –
32 | Cc1ccc(C(=O)NNC(=O)c2cc3ccccc3cc2O)cc1 | – | inconclusive: 22.4 µM [falling, single point]
33 | COc1ccc(CC(=O)OCC(=O)Nc2ccc(Cl)cc2C)cc1 | inconclusive: 0.771% | –
34 | CC(=O)c1cccc(N(CC(=O)Nc2ccc(F)cc2)S(C)(=O)=O)c1 | – | inconclusive: 11.6 µM [falling, partial curve]
35 | CCCNC(=O)c1ccccc1NC(=O)COc1cccc2c1OC(C)(C)C2 | inactive: -1.11% | –
36 | O=C(O)CSc1nnc(-c2ccc(Cl)cc2Cl)n1-c1ccc(Br)cc1 | inactive: 2.02% | –
37 | OCC1(CC2CCCCO2)CCN(Cc2nc3ccccc3[nH]2)CC1 (stereo not given) | – | inconclusive: 3.16 µM [falling, full curve, poor fit]
38 | O=C(N/N=C/C=C\c1ccccc1[N+](=O)[O-])c1cccs1 | – | inconclusive: 20.6 µM [falling, partial curve]
39 | O=C(Nc1ccc(N2CCN(C(=O)c3cccs3)CC2)c(Cl)c1)c1ccco1 | – | inconclusive: 29.1 µM [falling, single point]
40 | CCn1cc(C(=O)N(C)c2cc(C)ccc2OC)c2cc(OC)c(OC)cc2c1=O | inactive: -0.362% | –
41 | Cc1cc(-c2cc(C(=O)NCc3ccccc3)on2)nc(S(C)(=O)=O)n1 | – | inconclusive: 20 µM [falling, single point]
42 | O=C(O)C1CCCN(S(=O)(=O)c2cccs2)C1 (stereo not given) | inactive: 5.8% | –
43 | Cc1ccc(-n2c(C)cc(C(=O)COc3cccnc3[N+](=O)[O-])c2C)cc1 | inactive: -10.5% | –
44 | CCc1cccc2c(C(=O)COC(=O)c3ccc(O)cc3)c[nH]c12 | inconclusive: -5.32% | –
45 | CCCCn1c(SCC(=O)c2ccc(OC)c(OC)c2)nc2cc(S(N)(=O)=O)ccc21 | inconclusive: 7.84% | –
46 | COc1ccc(NC(=O)c2cc(-c3cccnc3)nc3c(C)c(C)ccc23)c(OC)c1 | inactive: -10.4% | –
47 | Cc1ccc(CSc2nc3ccncc3[nH]2)cc1 | – | inconclusive: 29.1 µM [falling, single point]
48 | O=C(O)CCC(=O)Nc1ccc(C(=O)OCC(=O)c2ccc(Cl)cc2Cl)cc1 | – | inconclusive: 15.8 µM [rising, single point]
49 | Cc1cc(=O)[nH]c(=S)n1-c1ccccc1 | inconclusive: -1.69% | –
50 | Cc1ccccc1CN1CCc2cc([N+](=O)[O-])ccc21 | inactive: 13.3% | –
51 | O=C(NCc1ccccc1)c1ccc(S(=O)(=O)NCc2ccco2)cc1 | inactive: -1.11% | –
52 | Cc1ccc(N2CC(C(=O)N3CCc4ccccc4C3)CC2=O)cc1 (stereo not given) | inconclusive: 4.21% | –
53 | Cc1ccccc1C(=O)N1CCCN(C(=O)c2ccccc2C)CC1 | inconclusive: -9.61% | –
54 | COc1ccc(N2CCN(S(=O)(=O)c3c(C)[nH]c(C)c3C(=O)N3CCCCC3)CC2)cc1 | inactive: -0.637% | –

Among those listed so far, 22 contain sulfur.
Row | Compound | activity change, negative = inhibition | Potency
3 | Cc1cc(C)cc(N(C(=O)c2snc(C(N)=O)c2N)C(C(=O)NCC2CCCO2)c2cccs2)c1 (stereo not given) | inactive: -10.9% | –
5 | Cc1ccccc1-n1c(Cc2cccs2)n[nH]c1=S | inactive: -6.64% | –
7 | Cc1ccccc1N=C1NC(=O)/C(=C/c2cccn2C)S1 | inconclusive: 463% | –
9 | COCCN=c1scc(-c2cccs2)n1/N=C/c1ccc(O)c(O)c1O | inactive: 16.2% | –
10 | CN1/C(=C\C=C2/SC(=S)N(CC(=O)O)C2=O)C(C)(C)c2ccccc21 | inactive: 19.6% | –
11 | COC(=O)CSc1nnc(NC(=O)CCc2ccccc2)s1 | – | inconclusive: 14.1 µM [falling, partial curve, poor fit]
12 | COc1ccc(NC(=O)N2CCN(S(C)(=O)=O)CC2)c(OC)c1 | inactive: 1.47% | –
14 | Cc1ccc(CSc2nc3c(c(N(C)C)n2)CCCC3)cc1 | inactive: 1.19% | –
15 | COc1ccc(C(C(=O)NCCC(C)C)N(CCO)C(=O)c2snc(C(N)=O)c2N)cc1OC (stereo not given) | inconclusive: -2.71% | –
17 | NC(=O)c1sc2nnc(-c3ccccc3)c(-c3ccccc3)c2c1N | inconclusive: -0.261% | –
26 | Nc1c(C(=O)NC2CCCCC2)nsc1C(=O)OCC(=O)NC1CCCCC1 | – | inconclusive: 0.562 µM [falling, full curve, poor fit]
34 | CC(=O)c1cccc(N(CC(=O)Nc2ccc(F)cc2)S(C)(=O)=O)c1 | – | inconclusive: 11.6 µM [falling, partial curve]
36 | O=C(O)CSc1nnc(-c2ccc(Cl)cc2Cl)n1-c1ccc(Br)cc1 | inactive: 2.02% | –
38 | O=C(N/N=C/C=C\c1ccccc1[N+](=O)[O-])c1cccs1 | – | inconclusive: 20.6 µM [falling, partial curve]
39 | O=C(Nc1ccc(N2CCN(C(=O)c3cccs3)CC2)c(Cl)c1)c1ccco1 | – | inconclusive: 29.1 µM [falling, single point]
41 | Cc1cc(-c2cc(C(=O)NCc3ccccc3)on2)nc(S(C)(=O)=O)n1 | – | inconclusive: 20 µM [falling, single point]
42 | O=C(O)C1CCCN(S(=O)(=O)c2cccs2)C1 (stereo not given) | inactive: 5.8% | –
45 | CCCCn1c(SCC(=O)c2ccc(OC)c(OC)c2)nc2cc(S(N)(=O)=O)ccc21 | inconclusive: 7.84% | –
47 | Cc1ccc(CSc2nc3ccncc3[nH]2)cc1 | – | inconclusive: 29.1 µM [falling, single point]
49 | Cc1cc(=O)[nH]c(=S)n1-c1ccccc1 | inconclusive: -1.69% | –
51 | O=C(NCc1ccccc1)c1ccc(S(=O)(=O)NCc2ccco2)cc1 | inactive: -1.11% | –
54 | COc1ccc(N2CCN(S(=O)(=O)c3c(C)[nH]c(C)c3C(=O)N3CCCCC3)CC2)cc1 | inactive: -0.637% | –

(listing goes on)

Row | Compound | activity change, negative = inhibition | Potency
55 | O=C(Nc1nc(-c2ccccc2)cs1)C1c2ccccc2Oc2ccccc21 | inconclusive: 22.4% | –
56 | O=[N+]([O-])c1cccc(/C=N/n2cnnc2)c1O | inactive: -14.5% | –
57 | C/C(=N\NC(=O)c1nnn(-c2nonc2N)c1CN1CCCCCC1)c1ccc(Br)cc1 | inconclusive: 3.95% | –
58 | Cc1ccc(C)c(N2CCN(C(=O)CCc3nc(-c4cccc(Cl)c4)no3)CC2)c1 | inconclusive: 2.93% | –
59 | Cc1cc(Cl)c(S(=O)(=O)N2CCN(c3cccc(C)c3C)CC2)cc1OCC(N)=O | inactive: -13.8% | –
60 | Cc1ccc(NC(=O)CCNC(=O)c2ccc(Br)cc2)cc1S(=O)(=O)N1CCCCCC1 | inconclusive: 0.514% | –
61 | Cc1cc(NC(=O)CN2CCN(S(=O)(=O)c3ccc(Cl)cc3)CC2)no1 | inconclusive: -2.2% | –
62 | O=C(CCNS(=O)(=O)c1cccc2nsnc12)Nc1ccc2c(c1)OCCO2 | – | inconclusive: 3.26 µM [falling, single point]
63 | Cc1[nH]c2ccccc2c1CC(=O)O | inconclusive: -2.34% | –
64 | Cc1cccc(C)c1OCC(=O)N/N=C/C=C/c1ccco1 | – | inconclusive: 28.2 µM [falling, single point]
65 | COc1ccc(-c2csc(NC(=S)NC(=O)/C=C/c3ccccc3)n2)cc1Br | inconclusive: -1.27% | –
66 | COc1ccc(N2CCN(C(c3cccs3)C(C)NC(=O)c3ccco3)CC2)cc1 (stereo not given) | – | inconclusive: 2.31 µM [falling, partial curve, poor fit]
67 | Cc1ccc(CN2CCN(Cc3ccc(-n4cccn4)cc3)CC2CCO)cc1 (stereo not given) | inconclusive: 4.99% | –
68 | COc1ccc(CCNC(=O)CCCN2C(=O)C(c3ccccc3)Oc3cccnc32)cc1OC (stereo not given) | inactive: 4.63% | –
69 | CCOC(=O)c1c(S(=O)(=O)N2CCCC(C(=O)Nc3cc(C)ccc3OC)C2)c(C)n(C)c1C (stereo not given) | inactive: -1.13% | –
70 | CCCS(=O)(=O)N1CCN(C(=O)CCC2CCCC2)CC1 | inconclusive: 0.633% | –
71 | Cc1ccc(S(=O)(=O)N2CCN(C(=O)CN3C(=O)c4ccc([N+](=O)[O-])cc4C3=O)CC2)c(C)c1 | inactive: 20.5% | –
72 | CC(=O)c1c(C)nc(-c2ccccc2)nc1N | inconclusive: 20% | –
73 | Nc1nc(C2C(=O)CCCC2=O)cs1 | inconclusive: 5.5% | –
74 | CC(=O)N(C1=C(Cl)C(=O)c2ccccc2C1=O)C1CCCCC1 | – | inconclusive: 35.5 µM [rising, single point]
75 | CCOC(=O)c1c(NC(=O)c2cc3nc(-c4ccc(OC)cc4)cc(C(F)(F)F)n3n2)sc(C)c1C | – | inconclusive: 0.126 µM [falling, full curve, poor fit]
76 | CS(=O)(=O)N1CCN(C(=O)c2c(F)cccc2F)CC1 | inconclusive: 10.3% | –
77 | CCCCCCN1CC(C(=O)OCC)C(=O)C1=O (stereo not given) | inactive: 7.47% | –
78 | COc1ccccc1C1=NOC(COc2ccc3c(C)cc(=O)oc3c2)C1 (stereo not given) | – | inconclusive: 8.91 µM [falling, partial curve]
79 | COc1ccc(CN2CCNC(=O)C2CC(=O)NCCc2nc(C)c(C)s2)cc1C (stereo not given) | inconclusive: -9.81% | –
80 | COc1ccc(CCNC(=O)Cn2cc(C(F)(F)F)cc(Cl)c2=O)cc1OC | inconclusive: 1.91% | –
